In paper PMC4940160, “Architecture and RNA binding of the human negative elongation factor”:

Test system: NELF-A (6-188) + NELF-C (183-590)
Test: fluorescence anisotropy
Details: NELF-AC: 30 mM NaCl, 3 mM MgCl2, 10 mM Na-HEPES pH 7.4, 2 mM DTT, 50 ug/ml BSA, other NELF complexes: same with 60 mM NaCl and 5 ug/ml yeast tRNA, 10 nM nucleic acid, recombinant protein, protein details: N-His6 removed by thrombin,none, label: 5'-FAM

## AGGGAGCTGGGAGCTGGGGG [junB ssDNA]
single-stranded DNA
  binding result: binds more weakly

## CCGCAUCUGCAGCGAGCAUCUGAGA [c-fos ssRNA]
binds, prefers DNA
  binding result: binds more weakly

Weaker means in comparison with the reference protein, sequence or condition of that experiment.
